Source: patent US20210361740A1
Results are given in words; binding and its absence hold for the method and conditions named. Binding seen in cells or lysates may run through a third protein. Some entries that bind do so weakly or less than the wild type.

Chains of the proteins cited; added tags and fusions are not shown. Residues count along the entry.
UniProt Q9QUN7, residues 25-784: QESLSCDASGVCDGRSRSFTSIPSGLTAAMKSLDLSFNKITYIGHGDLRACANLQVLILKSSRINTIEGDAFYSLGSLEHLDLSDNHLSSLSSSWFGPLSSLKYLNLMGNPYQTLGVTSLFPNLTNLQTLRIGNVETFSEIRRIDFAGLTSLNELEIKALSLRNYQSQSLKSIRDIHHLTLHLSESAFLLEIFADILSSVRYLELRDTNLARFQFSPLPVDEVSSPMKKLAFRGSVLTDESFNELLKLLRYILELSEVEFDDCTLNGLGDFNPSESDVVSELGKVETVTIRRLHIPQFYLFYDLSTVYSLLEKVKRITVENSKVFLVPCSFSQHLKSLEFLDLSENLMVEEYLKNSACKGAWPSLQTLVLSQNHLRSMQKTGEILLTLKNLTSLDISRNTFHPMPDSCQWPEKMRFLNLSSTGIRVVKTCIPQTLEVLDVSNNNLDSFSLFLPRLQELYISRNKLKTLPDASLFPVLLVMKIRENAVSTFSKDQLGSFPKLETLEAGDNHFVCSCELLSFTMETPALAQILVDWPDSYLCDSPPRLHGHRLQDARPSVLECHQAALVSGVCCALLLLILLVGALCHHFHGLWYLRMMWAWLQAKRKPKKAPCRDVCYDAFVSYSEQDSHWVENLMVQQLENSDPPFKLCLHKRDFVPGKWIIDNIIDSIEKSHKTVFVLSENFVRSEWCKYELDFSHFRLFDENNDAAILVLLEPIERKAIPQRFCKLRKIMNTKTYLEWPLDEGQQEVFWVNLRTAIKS
UniProt Q9QUK6, residues 26-835: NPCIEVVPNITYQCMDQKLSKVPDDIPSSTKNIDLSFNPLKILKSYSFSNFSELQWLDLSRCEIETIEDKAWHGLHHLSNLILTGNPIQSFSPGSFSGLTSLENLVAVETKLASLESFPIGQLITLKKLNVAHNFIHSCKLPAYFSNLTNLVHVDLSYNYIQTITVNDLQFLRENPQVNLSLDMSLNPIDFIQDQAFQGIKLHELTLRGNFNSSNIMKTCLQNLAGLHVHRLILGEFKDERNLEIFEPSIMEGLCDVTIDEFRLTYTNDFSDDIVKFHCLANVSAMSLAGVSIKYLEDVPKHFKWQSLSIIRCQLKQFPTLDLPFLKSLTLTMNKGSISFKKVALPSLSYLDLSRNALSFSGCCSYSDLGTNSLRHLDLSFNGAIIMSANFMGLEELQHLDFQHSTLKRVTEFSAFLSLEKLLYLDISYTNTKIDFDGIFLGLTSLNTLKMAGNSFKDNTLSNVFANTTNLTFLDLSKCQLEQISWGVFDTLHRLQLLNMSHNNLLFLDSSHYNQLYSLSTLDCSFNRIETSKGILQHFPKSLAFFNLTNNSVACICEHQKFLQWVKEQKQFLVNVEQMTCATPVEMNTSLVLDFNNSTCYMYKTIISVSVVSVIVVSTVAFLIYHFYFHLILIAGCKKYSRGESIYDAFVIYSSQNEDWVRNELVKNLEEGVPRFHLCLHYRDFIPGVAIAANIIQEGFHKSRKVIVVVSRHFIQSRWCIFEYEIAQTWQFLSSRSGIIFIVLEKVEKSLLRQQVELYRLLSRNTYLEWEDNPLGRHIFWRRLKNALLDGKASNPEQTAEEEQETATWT
UniProt P22366: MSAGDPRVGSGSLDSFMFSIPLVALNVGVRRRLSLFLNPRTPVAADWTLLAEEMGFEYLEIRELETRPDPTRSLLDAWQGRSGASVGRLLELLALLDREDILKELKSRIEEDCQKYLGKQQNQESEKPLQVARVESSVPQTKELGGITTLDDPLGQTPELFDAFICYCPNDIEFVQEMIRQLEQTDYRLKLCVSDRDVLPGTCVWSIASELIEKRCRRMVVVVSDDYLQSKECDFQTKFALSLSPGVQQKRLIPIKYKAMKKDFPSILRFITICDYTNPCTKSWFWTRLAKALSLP

Tests used:
[1] = target: TLR2 (endogenous, in microglial cells) (mouse) (UniProt Q9QUN7); test: densitometry of the co-immunoprecipitation (IP anti-MyD88, immunoblot TLR2) in BV-2 cells [G-L), panel H]
[2] = target: TLR2 (endogenous, in microglial cells) (mouse) (UniProt Q9QUN7); test: co-immunoprecipitation from BV-2 microglial cell extracts: IP anti-MyD88, immunoblot TLR2; cells preincubated with wtTIDM or mTIDM peptide [G-L), panel G]
[3] = target: TLR4 (endogenous, in BV-2 microglial cells) (UniProt Q9QUK6); test: co-immunoprecipitation: anti-MyD88 IP, TLR4 blot, BV-2 cell extracts
[4] = target: TLR4 (endogenous, in BV-2 microglial cells) (UniProt Q9QUK6); test: densitometry of the co-immunoprecipitation (IP anti-MyD88, immunoblot TLR4) in BV-2 cells [G-L), panel J]
[5] = target: TLR4 (endogenous, in BV-2 microglial cells) (UniProt Q9QUK6); test: co-immunoprecipitation from BV-2 microglial cell extracts: IP anti-MyD88, immunoblot TLR4; cells preincubated with wtTIDM or mTIDM peptide [G-L), panel I]

binding [1]: binds
binding [2]: binds
binding [3]: binds
binding [4]: binds
binding [5]: binds
Substance: MyD88 (myeloid differentiation primary response 88), endogenous in BV-2 microglial cells (from UniProt P22366 1-296)
